Source: doi:10.1101/2024.11.08.622598

Chains of the proteins cited; added tags and fusions are not shown.
UniProt Q96BN8: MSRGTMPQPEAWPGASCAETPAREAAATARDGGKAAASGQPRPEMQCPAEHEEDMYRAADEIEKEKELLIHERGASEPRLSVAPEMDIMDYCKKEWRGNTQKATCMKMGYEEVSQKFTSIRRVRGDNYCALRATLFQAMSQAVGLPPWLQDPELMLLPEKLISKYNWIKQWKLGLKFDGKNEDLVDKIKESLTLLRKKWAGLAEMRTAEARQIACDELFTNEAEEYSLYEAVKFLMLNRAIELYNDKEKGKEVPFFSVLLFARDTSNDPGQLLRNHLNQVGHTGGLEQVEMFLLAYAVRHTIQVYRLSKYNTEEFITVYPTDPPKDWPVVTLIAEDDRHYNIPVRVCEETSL
UniProt Q8N122: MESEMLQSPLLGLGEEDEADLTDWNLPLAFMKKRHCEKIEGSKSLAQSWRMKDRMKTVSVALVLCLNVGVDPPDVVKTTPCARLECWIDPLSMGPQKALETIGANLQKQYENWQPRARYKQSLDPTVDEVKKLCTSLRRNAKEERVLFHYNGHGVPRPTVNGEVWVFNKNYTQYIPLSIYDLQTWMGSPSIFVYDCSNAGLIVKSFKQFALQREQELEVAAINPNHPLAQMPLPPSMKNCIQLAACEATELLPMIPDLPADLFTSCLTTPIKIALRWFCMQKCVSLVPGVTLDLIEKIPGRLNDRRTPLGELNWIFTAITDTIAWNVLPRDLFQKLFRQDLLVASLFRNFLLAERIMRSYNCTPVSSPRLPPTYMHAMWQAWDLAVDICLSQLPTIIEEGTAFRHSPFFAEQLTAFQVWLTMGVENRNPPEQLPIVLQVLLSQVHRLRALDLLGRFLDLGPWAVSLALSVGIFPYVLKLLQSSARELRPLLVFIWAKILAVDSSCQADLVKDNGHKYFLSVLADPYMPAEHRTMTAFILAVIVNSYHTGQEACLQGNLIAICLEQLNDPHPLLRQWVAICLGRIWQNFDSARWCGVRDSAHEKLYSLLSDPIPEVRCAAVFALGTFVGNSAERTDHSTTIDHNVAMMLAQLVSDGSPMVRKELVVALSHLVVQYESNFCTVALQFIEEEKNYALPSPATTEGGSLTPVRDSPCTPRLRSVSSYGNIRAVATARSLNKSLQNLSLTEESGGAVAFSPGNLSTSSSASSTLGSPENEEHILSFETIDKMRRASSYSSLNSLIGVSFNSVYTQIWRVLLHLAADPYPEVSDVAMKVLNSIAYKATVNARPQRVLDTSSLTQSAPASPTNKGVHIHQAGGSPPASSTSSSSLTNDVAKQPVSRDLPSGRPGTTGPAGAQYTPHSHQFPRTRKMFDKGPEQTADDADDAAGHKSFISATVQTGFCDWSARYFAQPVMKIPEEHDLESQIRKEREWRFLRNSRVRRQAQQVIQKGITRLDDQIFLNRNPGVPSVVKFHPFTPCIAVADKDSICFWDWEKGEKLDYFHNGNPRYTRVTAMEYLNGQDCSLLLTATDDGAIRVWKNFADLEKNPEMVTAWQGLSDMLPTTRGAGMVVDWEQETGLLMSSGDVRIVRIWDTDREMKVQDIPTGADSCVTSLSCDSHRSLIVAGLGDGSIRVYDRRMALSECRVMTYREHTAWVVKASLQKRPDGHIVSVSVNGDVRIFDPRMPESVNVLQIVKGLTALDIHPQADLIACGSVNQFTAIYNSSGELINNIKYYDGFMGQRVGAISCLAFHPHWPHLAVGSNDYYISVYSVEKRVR

Target: 2xHA-2xStrep-OTULIN, full-length wild type (UniProt Q96BN8)
Assay: affinity purification with mass spectrometry

binding: binds
Substance: RAPTOR, endogenous (from UniProt Q8N122 1-1335)

No constants are given. Whether binding was seen depends on the method and setting. Binding seen in cells or lysates may run through a third protein. A yes stands for co-enrichment or nearness to the bait. Other partners may have been found.
